Some results were stated once for a whole list of compounds, not compound by compound.
Experiment: water solubility
Settings: compared to 1 and 2

Row | Structure (SMILES) | water solubility
1 | C[C@H](C(=O)NCc1ccccc1F)N1C(=O)CC(N(C)C)C1=O (stereo partly drawn) [Compound 6, (2R)-2-(3-(dimethylamino)-2,5-dioxopyrrolidin-1-yl)-N-(2-fluorobenzyl)propanamide] | good water solubility
2 | C[C@H](C(=O)NCc1ccccc1)N1C(=O)CC(N(C)C)C1=O (stereo partly drawn) [Compound 5, (2R)—N-benzyl-2-(3-(dimethylamino)-2,5-dioxopyrrolidin-1-yl)propanamide] | good water solubility

— patent publication US12331019B2, “Modified amino acid derivatives for the treatment of neurological diseases and selected psychiatric disorders” (Uniwersytet Jagiellonski, priority 2019, dated 2025)
